# Measured values published in US5021595A, “Transition metal catalyst composition for olefin polymerization” (Exxon Chemical Patents Inc., priority 1990, dated 1991).
# Assay: Copolymerization of norbornene type monomers with ethylene/propylene in CFSTR
# Details: 30° C.
# Experimental: Polymerization experiments were conducted in a continuous flow stirred tank reactor process wherein norbornene type monomers such as norbornene and 5-ethylidene-2-norbornene (ENB) are copolymerized employing the invention catalysts. The polymerization was conducted under the following conditions:
# Ethyl aluminum sesquichloride:
# Tetraethoxysilane at .208 gms/hr
substance,measurement,setting,value
Bis hexanoate mono chloro vanadium (+3) [Catalyst Code 1],Wt % monomer in polymer,Condition A: no norbornene monomer,0.0 WT %
same,Wt % monomer in polymer,Condition B: Norbornene at 10.3 gms/hr,6.4 WT %
same,Wt % monomer in polymer,Condition C: Norbornene at 20.6 gms/hr,12.4 WT %
same,Wt % monomer in polymer,Condition D: ENB at 12.4 gms/hr + Tetraethoxysilane at .208 gms/hr,9.5 WT %
